This is one part of the list.
Key:
Assay in all cases: log2 fold change, soluble protein after heating vs DMSO (PISA); higher = thermal stabilisation; K562 cells, 10 uM, 30 min; active = over 0.2 and 3.5 SD of the protein, either way, in both replicates (recomputed)
[1] = compound: C1=CC=C(C=C1)[C@H](COC2=CC3=C(C=C2)NC(=O)N3)NC(=O)C4=CC=CN(C4=O)CC5=CC(=C(C=C5)F)F
How it was run: (§1)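 K562 cells at 2×10^6 cells/mL were given 10 μM compound for 30 min. Aliquots then went through 3 min of heating across 48°C-58°C, were pooled, and were extracted in PBS with 0.5% NP-40 at 4°C, and the supernatant after 21,000xg for 90 min was quantified by TMTpro 16plex LC-MS/MS with channel sums equalised. Thermal stability relative to control samples, from duplicates, is given as log2 fold change.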

Chains of the proteins cited; added tags and fusions are not shown. Lines headed by an entry give the natural chain unless they say otherwise; changes in a name come on top.
UniProt P47756, whole entry, looked up: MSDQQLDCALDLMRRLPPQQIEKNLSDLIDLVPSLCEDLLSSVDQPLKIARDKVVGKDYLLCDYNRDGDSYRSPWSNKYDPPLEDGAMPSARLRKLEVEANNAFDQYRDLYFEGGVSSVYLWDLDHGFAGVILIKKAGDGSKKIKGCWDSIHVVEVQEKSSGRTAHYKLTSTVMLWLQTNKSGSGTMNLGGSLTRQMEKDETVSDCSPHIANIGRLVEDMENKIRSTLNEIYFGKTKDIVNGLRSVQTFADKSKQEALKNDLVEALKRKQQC
UniProt P41223: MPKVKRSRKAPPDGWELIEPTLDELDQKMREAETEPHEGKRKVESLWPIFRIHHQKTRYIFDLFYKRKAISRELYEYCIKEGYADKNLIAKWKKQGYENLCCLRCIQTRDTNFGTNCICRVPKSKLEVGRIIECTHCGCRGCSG
UniProt Q16581: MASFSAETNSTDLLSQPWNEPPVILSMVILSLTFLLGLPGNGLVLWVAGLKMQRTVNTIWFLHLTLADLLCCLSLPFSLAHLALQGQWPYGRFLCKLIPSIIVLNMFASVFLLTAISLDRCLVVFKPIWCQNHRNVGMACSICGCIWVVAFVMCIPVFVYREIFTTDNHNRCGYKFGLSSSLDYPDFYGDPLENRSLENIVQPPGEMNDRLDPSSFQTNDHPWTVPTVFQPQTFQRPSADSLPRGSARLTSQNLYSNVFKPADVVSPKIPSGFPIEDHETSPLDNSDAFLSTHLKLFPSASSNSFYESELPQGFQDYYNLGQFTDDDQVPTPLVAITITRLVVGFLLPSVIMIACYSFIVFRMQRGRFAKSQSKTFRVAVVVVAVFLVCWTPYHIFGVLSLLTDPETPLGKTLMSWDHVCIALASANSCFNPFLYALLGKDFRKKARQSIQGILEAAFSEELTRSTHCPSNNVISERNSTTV
UniProt Q8WVQ1: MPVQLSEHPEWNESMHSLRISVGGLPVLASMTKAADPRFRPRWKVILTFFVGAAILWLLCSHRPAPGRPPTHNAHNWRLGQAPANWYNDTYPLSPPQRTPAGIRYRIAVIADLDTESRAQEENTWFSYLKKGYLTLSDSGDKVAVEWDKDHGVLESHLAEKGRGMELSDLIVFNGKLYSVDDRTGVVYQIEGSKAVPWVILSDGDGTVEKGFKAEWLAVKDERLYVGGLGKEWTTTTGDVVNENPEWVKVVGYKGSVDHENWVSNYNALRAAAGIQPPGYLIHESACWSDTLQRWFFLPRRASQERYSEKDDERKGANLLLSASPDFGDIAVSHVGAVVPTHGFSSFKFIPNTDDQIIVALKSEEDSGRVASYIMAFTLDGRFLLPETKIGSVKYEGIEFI
UniProt Q9H3H3: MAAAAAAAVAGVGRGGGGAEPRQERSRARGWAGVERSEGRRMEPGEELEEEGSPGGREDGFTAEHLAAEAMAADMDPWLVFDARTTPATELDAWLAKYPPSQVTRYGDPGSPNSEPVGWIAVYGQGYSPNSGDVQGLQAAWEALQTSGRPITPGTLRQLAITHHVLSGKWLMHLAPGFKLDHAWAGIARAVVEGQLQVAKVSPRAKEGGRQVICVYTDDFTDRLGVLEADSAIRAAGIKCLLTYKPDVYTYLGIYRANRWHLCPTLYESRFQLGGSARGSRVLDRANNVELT
UniProt Q8N6N3: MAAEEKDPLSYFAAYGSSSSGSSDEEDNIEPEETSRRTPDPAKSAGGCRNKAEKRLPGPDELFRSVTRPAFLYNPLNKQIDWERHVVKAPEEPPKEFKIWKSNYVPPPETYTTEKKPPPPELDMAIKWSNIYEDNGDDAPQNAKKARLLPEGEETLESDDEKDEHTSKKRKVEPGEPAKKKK
UniProt Q5T5Y3: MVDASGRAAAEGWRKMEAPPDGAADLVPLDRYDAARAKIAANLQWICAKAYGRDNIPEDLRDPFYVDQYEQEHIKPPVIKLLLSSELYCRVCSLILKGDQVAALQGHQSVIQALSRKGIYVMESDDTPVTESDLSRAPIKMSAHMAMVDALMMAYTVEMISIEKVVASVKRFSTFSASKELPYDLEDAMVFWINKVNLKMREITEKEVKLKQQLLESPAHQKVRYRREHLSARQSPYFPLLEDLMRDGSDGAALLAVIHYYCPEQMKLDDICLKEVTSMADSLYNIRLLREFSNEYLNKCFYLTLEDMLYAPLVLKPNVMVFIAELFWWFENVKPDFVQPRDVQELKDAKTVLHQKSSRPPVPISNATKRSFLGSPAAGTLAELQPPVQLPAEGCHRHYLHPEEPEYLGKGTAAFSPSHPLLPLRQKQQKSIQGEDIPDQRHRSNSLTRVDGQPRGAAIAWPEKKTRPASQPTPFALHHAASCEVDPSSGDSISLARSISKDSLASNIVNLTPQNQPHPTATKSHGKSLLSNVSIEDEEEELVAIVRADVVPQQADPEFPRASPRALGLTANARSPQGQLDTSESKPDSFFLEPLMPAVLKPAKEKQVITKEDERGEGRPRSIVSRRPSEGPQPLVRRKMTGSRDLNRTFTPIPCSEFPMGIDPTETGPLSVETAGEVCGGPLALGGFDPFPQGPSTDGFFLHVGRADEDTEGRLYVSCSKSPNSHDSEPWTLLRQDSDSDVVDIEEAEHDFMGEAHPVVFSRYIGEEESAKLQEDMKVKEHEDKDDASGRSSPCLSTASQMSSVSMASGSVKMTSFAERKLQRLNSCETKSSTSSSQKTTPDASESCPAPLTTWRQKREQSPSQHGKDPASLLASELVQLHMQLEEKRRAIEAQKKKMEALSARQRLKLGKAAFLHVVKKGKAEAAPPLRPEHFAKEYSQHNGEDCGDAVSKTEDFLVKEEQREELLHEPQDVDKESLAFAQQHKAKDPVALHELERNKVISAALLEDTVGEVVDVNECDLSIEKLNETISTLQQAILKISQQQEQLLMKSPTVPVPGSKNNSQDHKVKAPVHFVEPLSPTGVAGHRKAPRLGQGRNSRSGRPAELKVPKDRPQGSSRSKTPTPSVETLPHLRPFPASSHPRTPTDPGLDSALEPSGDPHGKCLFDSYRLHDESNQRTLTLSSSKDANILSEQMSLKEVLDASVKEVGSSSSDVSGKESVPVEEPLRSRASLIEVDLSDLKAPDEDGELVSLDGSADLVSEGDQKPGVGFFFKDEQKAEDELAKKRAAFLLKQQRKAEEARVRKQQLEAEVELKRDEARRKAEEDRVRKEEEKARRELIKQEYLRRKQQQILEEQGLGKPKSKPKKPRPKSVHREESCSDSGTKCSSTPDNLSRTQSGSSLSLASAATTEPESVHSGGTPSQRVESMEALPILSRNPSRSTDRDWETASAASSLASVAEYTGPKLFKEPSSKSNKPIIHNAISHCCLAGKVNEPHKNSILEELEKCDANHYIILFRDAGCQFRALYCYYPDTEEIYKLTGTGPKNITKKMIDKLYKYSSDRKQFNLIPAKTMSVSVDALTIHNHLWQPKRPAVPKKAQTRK
UniProt Q96F05: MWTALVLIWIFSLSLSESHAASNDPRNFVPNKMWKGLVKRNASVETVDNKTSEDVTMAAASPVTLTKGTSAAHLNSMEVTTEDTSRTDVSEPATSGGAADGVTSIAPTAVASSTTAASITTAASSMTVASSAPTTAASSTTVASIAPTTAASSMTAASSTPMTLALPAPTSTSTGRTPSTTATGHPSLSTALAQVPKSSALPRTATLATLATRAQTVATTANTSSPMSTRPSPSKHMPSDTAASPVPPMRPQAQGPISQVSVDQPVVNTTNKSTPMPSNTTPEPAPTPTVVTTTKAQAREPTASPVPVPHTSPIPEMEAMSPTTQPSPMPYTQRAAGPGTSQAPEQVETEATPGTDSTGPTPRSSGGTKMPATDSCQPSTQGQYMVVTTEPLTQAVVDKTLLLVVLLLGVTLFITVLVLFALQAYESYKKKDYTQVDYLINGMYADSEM
UniProt Q9Y6E2: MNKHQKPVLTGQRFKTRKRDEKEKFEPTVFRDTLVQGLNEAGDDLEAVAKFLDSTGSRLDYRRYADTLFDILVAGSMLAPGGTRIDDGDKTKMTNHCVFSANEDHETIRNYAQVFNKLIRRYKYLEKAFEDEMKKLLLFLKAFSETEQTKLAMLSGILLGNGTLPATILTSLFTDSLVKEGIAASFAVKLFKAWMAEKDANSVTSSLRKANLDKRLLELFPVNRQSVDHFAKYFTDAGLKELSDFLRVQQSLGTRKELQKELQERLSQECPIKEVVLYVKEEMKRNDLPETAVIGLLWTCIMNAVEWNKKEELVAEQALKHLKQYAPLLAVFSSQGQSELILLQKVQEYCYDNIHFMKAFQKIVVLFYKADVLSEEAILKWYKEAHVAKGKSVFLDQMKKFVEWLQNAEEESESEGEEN
UniProt Q9Y6W3: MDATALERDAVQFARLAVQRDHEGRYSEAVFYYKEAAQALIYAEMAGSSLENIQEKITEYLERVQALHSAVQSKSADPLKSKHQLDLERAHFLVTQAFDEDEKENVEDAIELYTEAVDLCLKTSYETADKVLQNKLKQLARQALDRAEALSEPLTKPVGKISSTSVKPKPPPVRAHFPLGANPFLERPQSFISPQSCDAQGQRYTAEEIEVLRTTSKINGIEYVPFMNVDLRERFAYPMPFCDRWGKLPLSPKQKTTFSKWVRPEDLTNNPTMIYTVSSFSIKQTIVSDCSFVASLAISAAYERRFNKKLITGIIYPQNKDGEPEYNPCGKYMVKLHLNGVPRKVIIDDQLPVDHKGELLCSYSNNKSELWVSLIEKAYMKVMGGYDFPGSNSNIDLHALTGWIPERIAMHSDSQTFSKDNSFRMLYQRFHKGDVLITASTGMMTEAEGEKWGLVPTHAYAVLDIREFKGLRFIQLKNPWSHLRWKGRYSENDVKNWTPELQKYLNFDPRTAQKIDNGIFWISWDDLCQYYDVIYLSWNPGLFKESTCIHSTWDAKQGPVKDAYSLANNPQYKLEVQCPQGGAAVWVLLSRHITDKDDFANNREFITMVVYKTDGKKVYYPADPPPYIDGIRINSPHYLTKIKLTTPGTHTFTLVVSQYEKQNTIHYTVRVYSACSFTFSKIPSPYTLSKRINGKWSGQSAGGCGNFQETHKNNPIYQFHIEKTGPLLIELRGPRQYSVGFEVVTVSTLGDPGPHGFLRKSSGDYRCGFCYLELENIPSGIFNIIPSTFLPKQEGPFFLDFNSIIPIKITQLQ
UniProt Q9H7E9: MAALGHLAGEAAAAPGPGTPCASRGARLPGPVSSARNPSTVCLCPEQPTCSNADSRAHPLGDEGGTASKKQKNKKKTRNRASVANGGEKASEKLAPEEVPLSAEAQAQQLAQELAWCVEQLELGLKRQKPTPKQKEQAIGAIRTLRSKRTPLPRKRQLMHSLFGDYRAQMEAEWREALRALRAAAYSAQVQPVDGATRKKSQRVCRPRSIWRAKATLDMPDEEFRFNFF
UniProt Q9HB71, whole entry, looked up: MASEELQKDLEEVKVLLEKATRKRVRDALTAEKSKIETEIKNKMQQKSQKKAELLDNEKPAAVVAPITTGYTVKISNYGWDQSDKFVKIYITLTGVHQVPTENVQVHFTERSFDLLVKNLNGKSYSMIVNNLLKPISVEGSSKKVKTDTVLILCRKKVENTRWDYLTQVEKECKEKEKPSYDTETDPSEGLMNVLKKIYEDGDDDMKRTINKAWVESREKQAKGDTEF
UniProt Q8N5I9: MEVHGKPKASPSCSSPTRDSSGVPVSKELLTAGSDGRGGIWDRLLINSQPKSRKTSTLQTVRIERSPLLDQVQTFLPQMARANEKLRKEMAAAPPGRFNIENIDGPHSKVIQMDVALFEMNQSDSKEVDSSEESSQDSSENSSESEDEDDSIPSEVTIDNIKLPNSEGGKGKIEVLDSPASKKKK
UniProt O43709: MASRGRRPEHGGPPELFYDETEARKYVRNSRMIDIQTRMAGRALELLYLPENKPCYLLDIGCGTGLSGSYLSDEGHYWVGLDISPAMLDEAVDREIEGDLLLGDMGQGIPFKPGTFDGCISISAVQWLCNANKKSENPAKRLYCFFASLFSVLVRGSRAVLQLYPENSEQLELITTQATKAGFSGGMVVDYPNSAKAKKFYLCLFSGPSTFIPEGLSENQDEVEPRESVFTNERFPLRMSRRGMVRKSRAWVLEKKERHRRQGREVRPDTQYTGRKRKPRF
UniProt P43251: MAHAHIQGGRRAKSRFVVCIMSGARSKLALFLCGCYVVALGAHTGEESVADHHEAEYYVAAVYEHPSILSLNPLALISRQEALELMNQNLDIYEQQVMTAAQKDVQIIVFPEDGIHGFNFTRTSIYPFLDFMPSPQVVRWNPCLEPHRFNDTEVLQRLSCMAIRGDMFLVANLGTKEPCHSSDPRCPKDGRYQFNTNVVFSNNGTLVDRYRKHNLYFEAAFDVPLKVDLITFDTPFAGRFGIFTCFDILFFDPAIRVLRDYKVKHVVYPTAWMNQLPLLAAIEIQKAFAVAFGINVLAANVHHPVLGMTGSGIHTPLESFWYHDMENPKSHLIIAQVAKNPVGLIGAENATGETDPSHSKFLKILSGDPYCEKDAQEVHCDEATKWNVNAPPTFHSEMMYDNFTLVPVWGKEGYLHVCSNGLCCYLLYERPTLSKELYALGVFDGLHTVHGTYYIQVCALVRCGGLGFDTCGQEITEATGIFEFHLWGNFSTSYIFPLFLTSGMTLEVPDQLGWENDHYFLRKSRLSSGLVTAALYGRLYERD

[2] = compound: CC1=C(SC2=C1C(=N[C@H](C3=NN=C(N32)C)CC(=O)N)C4=CC=C(C=C4)Cl)C
How it was run: as §1

[3] = compound: CC1=C2C(=CC=C1)N=C(N(C2=O)C3=CC=CC=C3C)CN4C=NC5=C(N=CN=C54)N
How it was run: as §1

[4] = compound: Cc1sc2c(c1C)C(c1ccc(Cl)cc1)=N[C@@H](CC(=O)OC(C)(C)C)c1nnc(C)n1-2
How it was run: as §1

[5] = compound: c1ccc([C@@H]2C[C@H]2NC2CCNCC2)cc1
How it was run: as §1

Measured: log2 fold change

C1orf50 (UniProt Q9BV19)
inactive: [1] -0.259 | [2] 0.111 | [3] 0.052 | [4] -0.054 | [5] 0.021

CAPZB isoform 2 (UniProt P47756)
inactive: [1] -0.011 | [2] 0.007 | [3] 0.006 | [4] 0.05 | [5] 0.024

BUD31 (UniProt P41223)
inactive: [1] -0.002 | [2] 0.06 | [3] 0.051 | [4] -0.018 | [5] -0.019

C3AR1 (UniProt Q16581)
inactive: [1] -0.284

CANT1 (UniProt Q8WVQ1)
inactive: [1] -0.015 | [2] 0.014 | [3] 0.095 | [4] -0.033 | [5] 0.007

C11orf68 (UniProt Q9H3H3)
inactive: [1] -0.049 | [2] 0.062 | [3] 0.089 | [4] -0.017 | [5] 0.002

CAMK1 (UniProt Q14012)
inactive: [1] -0.141

C1orf52 (UniProt Q8N6N3)
inactive: [1] 0.02 | [2] 0.042 | [3] 0.014 | [4] -0.01 | [5] 0.032

CAMSAP1 isoform 3 (UniProt Q5T5Y3)
inactive: [1] -0.06 | [2] 0.083 | [3] 0.221 | [4] 0.016 | [5] 0.02

C11orf24 (UniProt Q96F05)
inactive: [1] 0.042

C2orf69 (UniProt Q8N8R5)
inactive: [1] -0.041 | [2] 0 | [3] -0.052 | [4] 0.002 | [5] 0.034

BZW2 (UniProt Q9Y6E2)
inactive: [1] -0.069 | [2] 0.042 | [3] 0.025 | [4] -0.033 | [5] -0.014

BTF3 (UniProt P20290)
inactive: [1] -0.002 | [2] -0.03 | [3] -0.029 | [4] -0.013 | [5] -0.004

CAPN7 (UniProt Q9Y6W3)
inactive: [1] -0.046 | [2] 0.044 | [3] 0.014 | [4] 0.015 | [5] -0.016

C1GALT1C1 (UniProt Q96EU7)
inactive: [1] 0.02 | [2] -0.004 | [3] -0.085 | [4] 0.05 | [5] -0.067

CAMKK2 (UniProt Q96RR4)
inactive: [1] -0.047 | [2] 0.388 | [3] 0.023 | [4] 0.019 | [5] 0.149

C8orf33 isoform 2 (UniProt Q9H7E9)
inactive: [1] 0.16 | [2] -0.386 | [3] -0.505 | [4] 0.399 | [5] 0.018

CAMK2G isoform 6 (UniProt Q13555)
inactive: [1] -0.017 | [2] 0.054 | [3] 0.044 | [4] 0.096 | [5] -0.021

CALU isoform 3 (UniProt O43852)
inactive: [1] 0 | [2] -0.003 | [3] -0.033 | [4] 0.02 | [5] 0.037

C7 (UniProt P10643)
inactive: [1] -0.022 | [2] 0.076 | [3] 0.001 | [4] -0.072 | [5] -0.045

CACYBP (UniProt Q9HB71)
inactive: [1] -0.02 | [2] 0.048 | [3] 0.063 | [4] -0.024 | [5] -0.015

CAPN1 (UniProt E9PLX0)
inactive: [1] -0.185

C12orf45 (UniProt Q8N5I9)
inactive: [1] 0.006 | [2] -0.003 | [3] 0.018 | [4] -0.016 | [5] 0.012

C17orf75 (UniProt Q9HAS0)
inactive: [1] -0.045 | [2] 0.015 | [3] 0.018 | [4] -0.063 | [5] -0.008

BUD23 isoform 3 (UniProt O43709)
inactive: [1] 0.02 | [2] -0.071 | [3] -0.005 | [4] 0.089 | [5] -0.029

Two successive records from above:
CACYBP (UniProt Q9HB71)
inactive: [1] -0.02 | [2] 0.048 | [3] 0.063 | [4] -0.024 | [5] -0.015

CAPN1 (UniProt E9PLX0)
inactive: [1] -0.185

Further results:

BTD isoform 3 (UniProt P43251)
inactive: [1] -0.013 | [2] -0.005 | [3] -0.053 | [4] 0.013 | [5] 0.095

Source: the supplement of paper PMC10849652
